Literature values, collected in patent publication US8299083B2, “PDE5 inhibitor compositions and methods for treating cardiac indications” (The Johns Hopkins University, priority 2004, dated 2012).
Some entries share one result that the patent states for a list of compounds.

Key:
PDE1 = details: printed as 1-20 μM for PDE1 or PDE3; cited from earlier work
PDE3 = details: printed as 1-20 μM for PDE1 or PDE3; cited from earlier work

## CCCc1nn(C)c2c(NCc3ccc(OC)c(Cl)c3)nc(COCC(=O)O)nc12 [EMD 360527, [7-(3-Chloro-4-methoxy-benzylamino)-1-methyl-3-propyl-1H-pyrazolo[4,3-d]pyrimidin-5-ylmethoxy]-acetic acid]
PDE1
  IC50: 1 to 20 µM
PDE3
  IC50: 1 to 20 µM
